Source: PubChem BioAssay AID1259405 (NCATS, 2018)
This is one part, drawn at random, of about 50,000 reagents tested. About 4,000 of them (8%) were called active. 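Mouse siRNA library applied to hamster cells; one well for each siRNA.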 Entries without a mark were called inactive. Reagents against one gene are numbered here. Reagent sequences are not shown.

- Aim: 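Silenced genes that increase secreted GFP made by CHO cells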 (primary screen)
- Cells: Chinese hamster CHO-K1 ovary cells with stable secreted eGFP expression
- Knock-down reagent: single siRNA against mouse genes, 0.8 pmol siRNA per well (2 µl of 400 nM stock)
- Duration: 3 days
- Measured: 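Per-well intracellular GFP measured by laser scanning cytometry, plus viability from ATP luminescence, each relative to plate median of non-targeting control wells, in %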
- Direction: GFP, % of control: higher = more GFP per well, higher productivity; viability (ATP), % of control: higher = more viable cells (more ATP)
- Call rule: 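a knock-down is called active if GFP reaches 120% or more of non-targeting control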

no.	gene knocked down	reagent	GFP, % of control	viability (ATP), % of control
1	Rnf112	1	99.6	75.8
2	Rnf112	2	160 (active)	78.6
3	Rnf112	3	143 (active)	95.4
4	Cnga1	1	59.3	81.7
5	Cnga1	2	88.7	101
6	Cnga1	3	61	64.5
7	Or10z1	1	78.2	63.1
8	Or10z1	2	116	76.8
9	Or10z1	3	107	70.9
10	Or5k15	1	72.5	70
11	Or5k15	2	73	84.7
12	Or5k15	3	36.9	103
13	Hdac5	1	37.2	53.6
14	Hdac5	2	102	76.5
15	Hdac5	3	84.6	78.9
16	Adamts1	1	90	67.3
17	Adamts1	2	116	74
18	Adamts1	3	92.8	65.6
19	9530080O11Rik	1	118	86
20	9530080O11Rik	2	100	46.8
21	9530080O11Rik	3	85.9	68.8
22	Tbl3	1	76.3	77.9
23	Tbl3	2	97.1	95.8
24	Tbl3	3	92.4	102
25	Sft2d1	1	68.3	73.8
26	Sft2d1	2	75.5	92.6
27	Sft2d1	3	127 (active)	93.8
28	Ppp1cc	1	122 (active)	106
29	Ppp1cc	2	77.6	85
30	Ppp1cc	3	82.9	89.9
31	Ctsr	1	110	102
32	Ctsr	2	46.3	61.3
33	Ctsr	3	85.9	81.4
34	Klra1	1	70	79.2
35	Klra1	2	83.3	84.2
36	Klra1	3	63.7	67.9
37	Trappc5	1	92.3	109
38	Trappc5	2	57.4	54.3
39	Trappc5	3	41.9	57.7
40	Ppp3cc	1	80.5	86
41	Ppp3cc	2	22.8	35.2
42	Ppp3cc	3	99.3	97.5
43	Negr1	1	54.8	67.2
44	Negr1	2	98.8	90.1
45	Psd3	1	104	87.9
46	Psd3	2	96.2	65
47	Psd3	3	66.6	72.4
48	Pla2g4d	1	127 (active)	106
49	Pla2g4d	2	111	102
50	Pla2g4d	3	88.4	73.2
51	Srf	1	63	56.2
52	Srf	2	90.7	84.9
53	Srf	3	34.5	61.8
54	Intu	1	70.7	71.6
55	Intu	2	66.8	69.1
56	Intu	3	79.5	111
57	Cacng3	1	73.2	91.1
58	Cacng3	2	96.2	101
59	Cacng3	3	67.9	68.3

Look-ups from the list.
Cacng3 #1, viability (ATP), % of control: 91.1
For “viability (ATP), % of control”, Or10z1 #1 has 63.1
Klra1 #3, viability (ATP), % of control = 67.9
Klra1 #2, GFP, % of control → 83.3
Psd3 #1, GFP, % of control → 104
Ctsr #2, GFP, % of control: 46.3

The listing continues:
no.	gene knocked down	reagent	GFP, % of control	viability (ATP), % of control
60	Pde9a	1	93.1	52.3
61	Pde9a	2	91.6	89.8
62	Pde9a	3	64.4	78
63	Bcl7b	1	55.2	39.6
64	Bcl7b	2	30.1	41.9
65	Bcl7b	3	112	119
66	Htra1	1	63.2	64.1
67	Htra1	2	115	64.5
68	Htra1	3	67.6	67.4
69	Il5ra	1	127 (active)	90.7
70	Il5ra	2	74.1	58
71	Il5ra	3	70.7	63.9
72	Casp8	1	83.8	85.6
73	Casp8	2	109	87.6
74	Casp8	3	80.7	73.9
75	Cinp	1	34.4	38.7
76	Cinp	2	48.4	46.1
77	Cinp	3	84.4	96.5
78	Bcl2l14	1	47	56.2
79	Bcl2l14	2	62.2	68.3
80	Bcl2l14	3	46.9	57.4
81	Fcgbp	1	166 (active)	109
82	Fcgbp	2	76.8	80.3
83	Fcgbp	3	116	41.5
84	Tra2a	1	105	66.9
85	Tra2a	2	107	104
86	Tra2a	3	165 (active)	119
87	Tra2a	4	75.4	93.9
88	Tra2a	5	79.2	58.1
89	Tra2a	6	82.3	82.9
90	Vasn	1	53.1	63.6
91	Vasn	2	75.3	85.4
92	Vasn	3	155 (active)	75.6
93	Cfap57	1	99.4	95
94	Cfap57	2	51.5	71.1
95	Cfap57	3	94.1	67.2
96	Or5b95	1	47	27.6
97	Or5b95	2	98.5	70.5
98	Or5b95	3	36.3	45
99	Dnaaf4	1	65.3	69.7
100	Dnaaf4	2	75.3	54.1
101	Dnaaf4	3	101	65.6
102	Timd2	1	89.9	48.3
103	Timd2	2	101	101
104	Timd2	3	56.3	52.5
105	Isyna1	1	116	135
106	Isyna1	2	57.2	63.9
107	Isyna1	3	62.4	110
